Assay [1] addresses T1, LTα3 (soluble homotrimer) (UniProt P01374).
T1 sequence (looked up): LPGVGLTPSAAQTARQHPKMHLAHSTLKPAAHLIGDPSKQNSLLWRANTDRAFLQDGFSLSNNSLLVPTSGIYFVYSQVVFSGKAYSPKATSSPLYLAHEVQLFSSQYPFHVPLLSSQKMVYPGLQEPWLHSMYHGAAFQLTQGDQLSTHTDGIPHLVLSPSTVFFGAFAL
Nature of the assay: ELISA on plate-coated LTα3 (1 or 5 ug/ml), HRP anti-murine Ig detection. (In an ELISA, binding on a coated surface is turned into a signal by an enzyme label.)

Assay [2] has as its target T2, LTα1β2 on the surface of PMA-treated II-23 cells (UniProt P01374).
T2 sequence 1: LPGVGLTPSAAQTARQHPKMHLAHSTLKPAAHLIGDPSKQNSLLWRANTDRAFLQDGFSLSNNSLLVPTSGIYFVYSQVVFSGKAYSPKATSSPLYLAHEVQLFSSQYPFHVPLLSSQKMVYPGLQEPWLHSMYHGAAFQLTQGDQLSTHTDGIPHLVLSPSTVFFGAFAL
T2 sequence 2: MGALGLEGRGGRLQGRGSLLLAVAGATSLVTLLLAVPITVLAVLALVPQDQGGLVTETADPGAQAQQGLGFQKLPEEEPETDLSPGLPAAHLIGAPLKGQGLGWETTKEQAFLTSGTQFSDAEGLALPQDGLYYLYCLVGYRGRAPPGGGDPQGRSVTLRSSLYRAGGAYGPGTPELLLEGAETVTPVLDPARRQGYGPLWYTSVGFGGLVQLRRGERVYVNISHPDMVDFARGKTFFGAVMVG
Nature of the assay: competition FACS (II-23 assay, as in FIG. 4): LT-expressing cells, varied antibody, labelled LTβR-Ig; MFI of bound LTβR-Ig.

Assay [3] deals with T2, LTα1β2 on the surface of PMA-treated II-23 cells. Nature of the assay: competition FACS (II-23 assay): PMA-treated II-23 cells, varied antibody, then biotin-LTβR-Ig at 1 ug/ml, streptavidin-PE; MFI of bound LTβR-Ig.

From patent US20140079716A1 come the findings set out here.

These are yes or no findings as the source states them, for the method shown. Some entries that bind do so weakly or less than the wild type.

B1: LT101 (P1G4.4) / LT103 (P1G9.1) (antibody, V domains shown)
VH: QVQLQQSGPELVKPGASVQISCKASGYVFSSSWMNWVKQRPGRGLEWIGRIYPGDGDTDYTGKFKGKATLTADKSSNTAYMQLSSLTSVDSAVYFCASGYFDFWGQGTPLTVSS
VL: DITMTQSPSSMYASLGERVTITCKASQDMNNYLRWFQQKPGKSPQTLIFRANRLVDGVPSRFSGSGSGQDYSLTISSLEFEDMGIYYCLQHDKFPPTFGGGTKLEIK
As for B1, the binding entry in assay [1] and in assay [2] was “binds” in each case.

B2: LT107 (P5C4.1) (antibody, V domains shown)
VH: QVQLKQSGPGLVQPSQNLSITCTVSGFSLTNYGIHWIRQPPGKGLEWLGVIWSGGSTDHNAAFISRLSISKDNSKSQVFFTMNSLEVDDTAIYYCARNRAYYRYEGGMDYWGQGTSVTVSS
VL: DIKMTQSPSSMYASLGERVTITCKASQDINTYLNWFQQKPGKSPMTLIYRADRLLDGVPSRFSGSGSGQDYSLTISSLEDEDMGIYYCQQYDDFPLTFGAGTKLELK
Turning to B2, the binding entry in assay [2] is recorded as “binds”.

B3: A1D5 (antibody, V domains shown)
VH: EVQLQQSGPELVKPGASVKISCKASGYSFTGYFMNWMRQSHGKSLEWIGRINPYNGDSFYNQKFKDKATLTVDKSSTTAHMELLSLTSEDSAVYYCGRGYDAMDYWGQGTSVTVSS
VL: DIQMTQTTSSLSASLGDRVTISCRASQDISNFLTWYQQKPDGTVKLLIYYTSKLHSGVPSRFSGSGSGTDYSLTISNLEPGDIATYYCQQVSKFPWTFGGGAKLEIK
As for B3, the binding result in assay [2] is given as “binds”.

B4: A0D9 (antibody, V domains shown)
VH: QVQLKQSGPGLVQPSQSLSITCTVSGFSLSTYGVHWVRQFPGKGLEWLGVIWRGGNTNYNAAFMSRLTISKDNSKSQVFFKMNSLQAKDTAIYYCVRNQIYDGYYDYAMDYWGQGTSVTVSS
VL: DIKMTQSPSSMYASLGERVTITCKASQDINTYLNWLQQKPGKSPKTLIYRANRLVDGVPSRFSGRGSGQDYSLTISSLEYEDVGIYYCLHYDAFPWTFGGGTKLEIK
B4: the binding result in assay [2] is “binds”.

B5: LT105 (P2E9.7) (antibody, IgG1, V domains shown)
VH: DVQLQESGPGLVKPSQSLSLTCSVTGYSITSGYYWNWIRQFPGNKLEGMGYISYDGSNNYNPSLKNRISITRDSSKNQFFLKLNSVTAEDSGTYYCARDAYSYGMDYWGQGTSVTVSS
VL: DIVLTQSPASLAVSLGQRATISCRASESVDNYGISFMHWYQQKPGQPPKLLIYRASNLESGIPARFSGSGSRTDFTLTINPVETDDVATFYCQQSNKDPYTFGGGTKLEIK
In the case of B5, the binding result in assay [2] and in assay [3] was “binds” throughout.

B6: 9B4 (antibody, V domains shown)
VH: QVTLKESGPGILQPSQTLSLTCSFSGFSLSTSGMGVSWIRQPSGKGLEWLAHIYWDDDKRYNPSLRSRLTISKDTSRNQVFLKITSVDTADTATYYCARREGYYGSSFDFDVWGAGTTVTVSS
VL: QIVLSQSPAILSASPGEKVTMTCRASSSVSYMIWYQQKPGSSPKPWIYATSSLASGVPTRFSGSGSGTSYSLTISRVEAADAATYYCQQWSYNPLTFGAGTKLELK
On to B6, for which the binding result in assay [3] is listed as “binds”.

B7: LT102 (P1G8.2) (antibody, IgG1, V domains shown)
VH: EVKLVESGGGLVKPGGSLKLSCAVSGFTFSDYYMYWIRQTPEKRLEWVATIGDGTSYTHYPDSVQGRFTISRDYATNNLYLQMTSLRSEDTALYYCARDLGTGPFAYWGQGTLVTVSA
VL: DVLMTQTPRSLPVSLGDQASISCRSSQNIVHSNGNTYLEWYLQKPGQSPKLLIYKVSNRFSGVPDRFSGSGSGTDFTLKISRVEAEDLGVYYCFQGSHFPWTFGGGTKLEIK
Turning to B7, the binding entry in assay [2] and in assay [3] was “binds” throughout.
